Test results taken from patent publication US20230094463A1, “ANTIBODIES THAT DISRUPT THE INTERACTION OF GAL3 AND INSULIN RECEPTOR OR INTEGRINS AND METHODS OF USE THEREOF” (TrueBinding, Inc., priority 2019, published 2023).
These are yes or no findings as the source states them, for the method shown. Some results given as binding are weak or reduced against the parent protein; the word gives no strength.

Target: T1, Gal3 Peptide 2 (human)
T1 sequence (peptide): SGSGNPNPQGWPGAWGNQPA
Experiment: peptide ELISA: Gal3 peptide coated on the plate, antibody (hIgG4 S228P) at 5 µg/mL, anti-human IgG-HRP, A450 (Example 18)

B1: F849C.8H3 (antibody, human IgG4 S228P, kappa, V domains shown)
VH: QVTLKESGPGILQPSQTLSLTCSFSGFSLSTFGMGVGWIRQPSGKGLEWLAHIWWDDDKHYNPALKSRLTISKDTSKNQVFLRIANVDTADNATYYCARIDYGDYVGFAYWGQGTLVTVSA
VL: DIGMRQAAFSNPVTLGTSASISCRSSKSLLYSNGITYLYWFLQKPGQSPQLLIYQMSNLASGVPDRFSSSGSGTDFTLRISRVEADDVGVYYCAQNLELPWTFGGGTKLEIKR
binding: binds
